# Data published in patent US20200215537A1, “ULTRASENSITIVE CANTILEVER” (3P SENSE LIMITED, priority 2017, published 2020).
# Tested on: vancomycin susceptible receptor (VSR)
# Assay: Cantilever binding assay, vancomycin against VSR coated cantilevers
# Details: 70 μm wide cantilevers
# Experimental: In the case of preparation of unpassivated cantilever, SAMs of D-VSR, L-VSR and inert PEG molecules were diluted to a concentration of 1 μM in pure ethanol. The diluted SAMs were individually injected into glass capillary tubes (King Precision Glass, Claremont, Calif., USA) which were arranged on the functionalization stage. The cantilevers were then functionalized by incubating them with individual SAMS inside the glass capillaries for 20 min. Care was taken to ensure that the hinge region was entirely covered with the SAM solution in order to ensure mechanical connectivity between the transduction arrays and hinge region.
# The finding that a signal response is detectable even when the assembling of array networks is confined to only 30 μm of the geometrical width of the region covered while the corresponding geometeric length is fixed at 500 μm of the cantilever, prompted us to examine whether changing the dimensions of the cantilever itself whilst maintaining the mechanical connectivity of surface receptors has any impact on the signal sensitivity and reproducibility. […] This particular system was chosen because it gives relatively large signals and it has been previously shown that the quantitative Van-VSR binding constants can be measured^21 and so it can be used to redefine the limit of recognition of biologically relevant systems. […]
structure (smiles),measurement,setting,value
"CN[C@H](CC(C)C)C(=O)N[C@H]1C(=O)N[C@@H](CC(N)=O)C(=O)N[C@H]2C(=O)N[C@H]3C(=O)N[C@H](C(=O)N[C@H](C(=O)O)c4cc(O)cc(O)c4-c4cc3ccc4O)[C@H](O)c3ccc(c(Cl)c3)Oc3cc2cc(c3O[C@@H]2O[C@H](CO)[C@@H](O)[C@H](O)[C@H]2O[C@H]2C[C@](C)(N)[C@H](O)[C@H](C)O2)Oc2ccc(cc2Cl)[C@H]1O [Van, vancomycin]",signal-to-noise ratio (SNR),500 pM Van,7
same,detection limits,,7e-10 g/mL
